# Data source: PubChem BioAssay AID1259254 (NCATS, 2017)
# Test: 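Genome-wide screen for genes that prevent DNA re-replication in cancer cells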 (primary screen)
# System: human HCT116 colorectal cancer cells
# Knock-down reagent: single siRNA against human genes
# Timing: 3 days
# Measured: 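Imaged Hoechst DNA stain sorts each cell into a cycle phase by DNA amount; per plate, G2 fraction set to 0% for non-targeting and 100% for GMNN siRNA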
# Scale: G2 robust z-score and G2 cells, % of GMNN control: higher = more G2 cells, more excess DNA replication; raw share of cells in G2: higher = larger share of cells with G2 DNA content
# Hit rule: 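Active siRNAs have a G2 robust z of 5 or more median absolute deviations over the median, which in these data means about 38% or higher of GMNN control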
# Here is an unselected part of about 59,000 reagents. Of all reagents, about 1,550 (2.6%) got an active call. 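G2 share is only a proxy for re-replication; each gene was hit by three separate siRNAs, and active genes were retested.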 Raw values vary from plate to plate and are shown uncorrected. The numbers tell different reagents against one gene apart. No sequences are given here. Not stated in the record: the amount of reagent.
target gene,siRNA no.,G2 robust z-score,"G2 cells, % of GMNN control",raw share of cells in G2 (%),Call
LYZ (lysozyme),1,-1.01,-4.12,3.84,inactive
LYZ (lysozyme),2,-0.315,0.75,5.65,inactive
LYZ (lysozyme),3,0.246,4.7,4.74,inactive
DPH2 (diphthamide biosynthesis 2),1,0.546,6.81,8.5,inactive
DPH2 (diphthamide biosynthesis 2),2,0.354,5.46,6.09,inactive
DPH2 (diphthamide biosynthesis 2),3,0.308,5.14,5.53,inactive
RNF14 (ring finger protein 14),1,0.897,9.28,6.37,inactive
RNF14 (ring finger protein 14),2,2.37,19.7,12.6,inactive
RNF14 (ring finger protein 14),3,0.313,5.17,6.85,inactive
ENOX1 (ecto-NOX disulfide-thiol exchanger 1),1,1.52,13.6,12.4,inactive
ENOX1 (ecto-NOX disulfide-thiol exchanger 1),2,0.31,5.15,6.28,inactive
ENOX1 (ecto-NOX disulfide-thiol exchanger 1),3,-0.239,1.28,4.87,inactive
CELSR2 (cadherin EGF LAG seven-pass G-type receptor 2),1,-0.444,-0.157,5.79,inactive
CELSR2 (cadherin EGF LAG seven-pass G-type receptor 2),2,1.59,14.2,9.47,inactive
CELSR2 (cadherin EGF LAG seven-pass G-type receptor 2),3,-0.556,-0.944,2.98,inactive
ZNF250 (zinc finger protein 250),1,3.72,29.2,13.1,inactive
ZNF250 (zinc finger protein 250),2,-1.18,-5.3,3.51,inactive
ZNF250 (zinc finger protein 250),3,0.684,7.78,6.08,inactive
ATP5MK (ATP synthase membrane subunit k),1,0.39,5.71,4.14,inactive
ATP5MK (ATP synthase membrane subunit k),2,-0.95,-3.72,2.87,inactive
ATP5MK (ATP synthase membrane subunit k),3,-0.647,-1.58,2.99,inactive
LIPT2 (lipoyl(octanoyl) transferase 2),1,0.0181,3.09,5.96,inactive
LIPT2 (lipoyl(octanoyl) transferase 2),2,-0.554,-0.932,3.45,inactive
LIPT2 (lipoyl(octanoyl) transferase 2),3,-0.496,-0.522,3.18,inactive
LOC645645 (retired record),1,0.879,9.15,7.23,inactive
LOC645645 (retired record),2,-0.973,-3.88,1.79,inactive
LOC645645 (retired record),3,0.00415,3,3.99,inactive
MRPL34 (mitochondrial ribosomal protein L34),1,0.597,7.17,7.7,inactive
MRPL34 (mitochondrial ribosomal protein L34),2,1.42,13,10.4,inactive
MRPL34 (mitochondrial ribosomal protein L34),3,-0.507,-0.599,2.54,inactive
PHKA1 (phosphorylase kinase regulatory subunit alpha 1),1,-0.895,-3.33,3.71,inactive
PHKA1 (phosphorylase kinase regulatory subunit alpha 1),2,1.37,12.6,8.1,inactive
PHKA1 (phosphorylase kinase regulatory subunit alpha 1),3,4.28,33.1,13.4,inactive
PTPN5 (protein tyrosine phosphatase non-receptor type 5),1,-1.61,-8.38,2.07,inactive
PTPN5 (protein tyrosine phosphatase non-receptor type 5),2,2.34,19.4,10.1,inactive
PTPN5 (protein tyrosine phosphatase non-receptor type 5),3,-0.41,0.0815,3.52,inactive
SLC22A4,1,4.57,35.1,17.5,inactive
SLC22A4,2,1.19,11.3,8.43,inactive
SLC22A4,3,5.91,44.5,18.7,active
MYL12B (myosin light chain 12B),1,3.55,28,18.7,inactive
MYL12B (myosin light chain 12B),2,3.23,25.7,16,inactive
MYL12B (myosin light chain 12B),3,0.914,9.4,8.03,inactive
ATP5F1B (ATP synthase F1 subunit beta),1,0.152,4.04,6.76,inactive
ATP5F1B (ATP synthase F1 subunit beta),2,3.92,30.5,15.1,inactive
ATP5F1B (ATP synthase F1 subunit beta),3,0.847,8.93,7.86,inactive
FKTN (fukutin),1,0.108,3.73,7.05,inactive
FKTN (fukutin),2,-0.452,-0.211,4.01,inactive
FKTN (fukutin),3,0.283,4.96,5.47,inactive
STKLD1 (serine/threonine kinase like domain containing 1),1,2.96,23.8,12.1,inactive
STKLD1 (serine/threonine kinase like domain containing 1),2,2.74,22.2,10.4,inactive
STKLD1 (serine/threonine kinase like domain containing 1),3,0.172,4.18,4.08,inactive
WDR26 (WD repeat domain 26),1,0.385,5.68,6.8,inactive
WDR26 (WD repeat domain 26),2,-0.856,-3.05,2.97,inactive
WDR26 (WD repeat domain 26),3,0.366,5.54,3.89,inactive
PHF19 (PHD finger protein 19),1,-0.75,-2.31,3.23,inactive
PHF19 (PHD finger protein 19),2,-0.976,-3.9,4.4,inactive
PHF19 (PHD finger protein 19),3,1.76,15.3,9.27,inactive
ZNF532 (zinc finger protein 532),1,1.04,10.3,6.42,inactive
ZNF532 (zinc finger protein 532),2,-1.2,-5.47,3.44,inactive
ZNF532 (zinc finger protein 532),3,-0.174,1.75,4.18,inactive
AZI2 (5-azacytidine induced 2),1,-0.226,1.37,5.18,inactive
AZI2 (5-azacytidine induced 2),2,1.3,12.1,10.1,inactive
AZI2 (5-azacytidine induced 2),3,-0.0987,2.27,3.3,inactive
C3orf22 (chromosome 3 open reading frame 22),1,-0.534,-0.787,2.79,inactive
C3orf22 (chromosome 3 open reading frame 22),2,-0.192,1.61,4.37,inactive
C3orf22 (chromosome 3 open reading frame 22),3,0.166,4.13,4.19,inactive
LINC00851 (long independently transcribed non-coding RNA 851),1,0.196,4.35,5.07,inactive
LINC00851 (long independently transcribed non-coding RNA 851),2,0.175,4.2,4.55,inactive
LINC00851 (long independently transcribed non-coding RNA 851),3,1.66,14.7,9.28,inactive
RASGEF1A (RasGEF domain family member 1A),1,0.128,3.87,4.98,inactive
RASGEF1A (RasGEF domain family member 1A),2,1.9,16.4,8.73,inactive
RASGEF1A (RasGEF domain family member 1A),3,1.07,10.5,6.55,inactive
CLDN4 (claudin 4),1,-0.152,1.9,4.21,inactive
CLDN4 (claudin 4),2,-0.272,1.05,5.34,inactive
CLDN4 (claudin 4),3,-0.26,1.14,3.52,inactive
SPACA7 (sperm acrosome associated 7),1,-0.134,2.03,4.9,inactive
SPACA7 (sperm acrosome associated 7),2,-1.02,-4.18,2.08,inactive
SPACA7 (sperm acrosome associated 7),3,0.0152,3.07,2.72,inactive
COLEC12 (collectin subfamily member 12),1,2.85,23,15,inactive
COLEC12 (collectin subfamily member 12),2,2.98,23.9,12.8,inactive
COLEC12 (collectin subfamily member 12),3,0.0441,3.28,6,inactive
FIGLA (folliculogenesis specific bHLH transcription factor),1,0.475,6.31,8.63,inactive
FIGLA (folliculogenesis specific bHLH transcription factor),2,-1.5,-7.6,1.51,inactive
FIGLA (folliculogenesis specific bHLH transcription factor),3,0.134,3.91,6.49,inactive
CBX7 (chromobox 7),1,-0.847,-2.99,3.29,inactive
CBX7 (chromobox 7),2,2.12,17.9,11.7,inactive
CBX7 (chromobox 7),3,0.799,8.59,6.3,inactive
